Measured values: patent publication US20100111943A1, “COMPOSITIONS AND METHODS FOR INHIBITING CANCER METASTASIS” (Medical College of Georgia Research Institute, Inc, priority 2007, published 2010)
No constants are given. Whether binding was seen depends on the method and setting. In cells and extracts the contact can be indirect. Some binding calls cover weakened binding; strength is not graded here.

What was measured:
[1] = target: FLAG (F)-tagged hsp90α (wild type) (UniProt P07900); assay: co-immunoprecipitation in HEK293 cells
[2] = target: FLAG (F)-tagged hsp90α (wild type) (UniProt P07900); assay: co-IP from transfected HEK293 cells: anti-HA.11 immunoprecipitates immunoblotted with anti-F

binding [1]: binds
binding [2]: binds
Substance: HA-tagged p300 (from UniProt Q09472 1-2414) (enzyme)
